Test results: the supplement of paper PMC3334620
In all, about 33,000 sequences were measured (“E-score (-0.5 to 0.5)”: median about -0.0034, highest 2% from about 0.25 on). The list shows a part of the results.

Biological target: T1, Yap3 (UniProt P38749)
T1 sequence: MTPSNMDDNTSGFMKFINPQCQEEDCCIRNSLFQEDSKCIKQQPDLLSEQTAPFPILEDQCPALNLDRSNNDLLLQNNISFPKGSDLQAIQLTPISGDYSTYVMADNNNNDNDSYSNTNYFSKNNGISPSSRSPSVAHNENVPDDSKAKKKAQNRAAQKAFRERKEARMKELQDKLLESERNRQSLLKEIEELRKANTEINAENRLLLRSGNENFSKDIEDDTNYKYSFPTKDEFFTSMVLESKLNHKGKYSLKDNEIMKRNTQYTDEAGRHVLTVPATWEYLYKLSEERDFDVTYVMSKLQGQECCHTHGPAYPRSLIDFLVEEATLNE
Assay: PBM E-score (8-mer binding enrichment) (E-score (-0.5 to 0.5)); higher = stronger / more preferred TF binding
Settings: protein concentration: 100 nM; construct: GST-full length
Outline: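 Universal all-10-mer Agilent arrays, fresh or stripped once, were converted to double-stranded form by primer extension. GST-tagged yeast transcription factors from PURExpress in vitro transcription/translation, full-length or DNA-binding domain only, were applied at about 100-200 nM and detected with fluorescent anti-GST. After masliner normalisation, the Universal PBM Analysis Suite scored each ungapped eight-base word together with its reverse complement by E-score.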

First: ATCCAATC
Second: GAGTCCCC
The “PBM E-score” value of the first is higher: -0.0624 for the first, -0.429 for the second.

First: ACTTAGAA
Second: AGCACGGC
The “PBM E-score” value of the first is higher: 0.0127 for the first, -0.11 for the second.

Going from ACAGGAGT to TACGCTGA, the “PBM E-score” value rises from -0.0338 to 0.156.

First: ATGCAAAC
Second: ATTGACGA
The “PBM E-score” value of the first is lower: 0.0275 for the first, 0.135 for the second.

Compared with GTCAGAGA, TTATGGAA is higher in “PBM E-score” value: -0.225 for the first, 0.0926 for the second.

Compared with ACTTTTAC, CAGCCTGA is lower in “PBM E-score” value: 0.243 for the first, -0.138 for the second.

First: CCCATAAA
Second: AAACAATG
The “PBM E-score” value of the first is lower: -0.168 for the first, 0.138 for the second.

First: AATAAATG
Second: CGCCTGTA
The “PBM E-score” value of the first is higher: 0.216 for the first, -0.104 for the second.

Compared with ATCCGGAG, ACATGCAT is higher in “PBM E-score” value: 0.0875 for the first, 0.188 for the second.

Going from CCCACCGG to GTGGATGA, the “PBM E-score” value rises from -0.36 to 0.0954.

Compared with GTGGGCTA, CATGTCTA is lower in “PBM E-score” value: -0.0311 for the first, -0.0383 for the second.

First: AGAAGTCG
Second: AATGGTGA
The “PBM E-score” value of the first is lower: 0.0232 for the first, 0.0242 for the second.

First: GCCATAGA
Second: AGAAATAA
The “PBM E-score” value of the first is lower: -0.0632 for the first, 0.228 for the second.

Going from CGGCGAAA to AATCTTAA, the “PBM E-score” value falls from 0.23 to 0.0551.

Compared with CGGGCTGA, AGACTTAA is higher in “PBM E-score” value: -0.166 for the first, -0.0445 for the second.

First: ATCAAAGC
Second: TCGGCCGA
The “PBM E-score” value of the first is lower: 0.115 for the first, 0.2 for the second.

Going from ACAGCTGT to TAGCGAAA, the “PBM E-score” value rises from 0.0872 to 0.146.

First: TAGCTACA
Second: CAAGAGAC
The “PBM E-score” value of the first is higher: 0.125 for the first, -0.0846 for the second.

Compared with ATCGCTGA, CGCGGCGC is lower in “PBM E-score” value: 0.198 for the first, 0.106 for the second.

Compared with ACATAGAT, CCCCTTTC is lower in “PBM E-score” value: 0.082 for the first, -0.222 for the second.

Compared with CCCCACAC, TCACCGGA is higher in “PBM E-score” value: -0.147 for the first, 0.145 for the second.

Compared with GGAGAAAC, ATGTGATG is lower in “PBM E-score” value: 0.116 for the first, -0.0625 for the second.

Compared with CTACCTCC, AAGGAGGG is higher in “PBM E-score” value: -0.0834 for the first, -0.0663 for the second.

Compared with CAAACGGA, ACACTGCG is higher in “PBM E-score” value: 0.0334 for the first, 0.0965 for the second.

Compared with ACCCATAC, ACTGCCCT is lower in “PBM E-score” value: 0.00765 for the first, -0.127 for the second.

Going from AAAAAGGC to AAAGTGCA, the “PBM E-score” value rises from 0.0304 to 0.0828.

Going from AACTGAGT to CCTCCTCA, the “PBM E-score” value falls from -0.0529 to -0.255.

Compared with TCCAGACA, GACTTGTA is lower in “PBM E-score” value: -0.102 for the first, -0.164 for the second.

Going from AGCCCAGG to GAGACGCC, the “PBM E-score” value rises from -0.336 to -0.105.

First: GTAACTCA
Second: AGACACGC
The “PBM E-score” value of the first is lower: -0.212 for the first, -0.135 for the second.

Compared with AATGGTAT, GTCATGAC is lower in “PBM E-score” value: 0.167 for the first, 0.138 for the second.

Going from ACCAAATG to CGAAACAA, the “PBM E-score” value rises from 0.0905 to 0.194.

Going from ACCCTAGT to GAAACTCA, the “PBM E-score” value rises from -0.0742 to -0.0239.

First: GCAATCCA
Second: AAGAGCGA
The “PBM E-score” value of the first is higher: 0.0882 for the first, -0.108 for the second.

Going from CGGATAAG to AATCTCGA, the “PBM E-score” value falls from 0.144 to 0.00168.

First: CGTGGCCC
Second: ACCATATA
The “PBM E-score” value of the first is lower: -0.286 for the first, 0.285 for the second.

Compared with GGGGTGCA, CGACTGCG is lower in “PBM E-score” value: -0.0791 for the first, -0.123 for the second.

Compared with ACTCGGAA, TATCGGCA is lower in “PBM E-score” value: 0.156 for the first, 0.0304 for the second.

First: CCCCAATC
Second: TTCAGCAA
The “PBM E-score” value of the first is lower: -0.0938 for the first, 0.193 for the second.

Going from ACAACCGC to CGTCGCTC, the “PBM E-score” value falls from 0.116 to -0.18.

Compared with AATTTGAT, ACCGCTCA is lower in “PBM E-score” value: 0.0887 for the first, -0.0569 for the second.

Going from GGGCCCAC to ATTTCGAC, the “PBM E-score” value rises from -0.121 to -0.0412.

Compared with GCAACAGC, CGGGAGTA is higher in “PBM E-score” value: -0.178 for the first, -0.0249 for the second.
